Some results were stated once for a whole list of compounds, not compound by compound.
Test system: high passage cells (HES astroglia)
Test: Growth rate by cell counting after reversible growth inhibitors and washout
Assay type: cell-based, human
Conditions: after washout of inhibitor
Method: Primary tissue was gathered from individuals undergoing surgery related to medically intractable temporal lobe epilepsy. Primary tissue was removed and stored overnight in ice-cold DMEM/F-12 medium containing 20 mg/ml penicillin, […] streptomycin., and 25 ng/ml amphotericin B (collectively 1× antibiotics). Hippocampus (containing hilus) and temporal cortex (not containing subventricular zone) were microdissected from biopsied tissue samples (n=4, data presented from person). Dissected tissues were placed in 1× phosphate buffered saline (PBS, pH 7.3) lacking CaCl2 or MgCl2, and were manually dissociated into 1 mm^3 pieces under sterile conditions. Tissues were collected and resuspended in 0.005% trypsin (15 min, 37° C., pH 7.3), and were further triturated using restricted bore pipetting. Cells were collected, resuspended in proliferative media, and seeded onto uncoated T75 culture flasks overnight (12 hr, 37° C., 5% humidified CO2). […] Cells were dissociated with 0.005% trypsin, counted (using trypan dye exclusion as viability criteria), and were replated onto uncoated 60 mm plastic dishes. […] To assess viability of cells in various growth conditions, equal numbers of culture-matched cells were seeded into triplicate wells of various proliferative conditions, and counted 7, 14, and 21 days later. […] Significance (p<0.05) was calculated using a student's t-test. […]

| Molecule | time to return to normal growth rates following replating in proliferative media [days] |
| --- | --- |
| C[C@@]1(CO)[C@H](O)CC[C@@]2(C)[C@H]1CC[C@H]1C[C@@H]3C[C@@]12CC[C@]3(O)CO [aphidicolin] | ≤ 7 |
| epigallocatechin-3-gallate [EGCG] | ≤ 7 |
